Here are results for 42 sequences from PMC7819943, “Rice protein-binding microarrays: a tool to detect cis-acting elements near promoter regions in rice”.

Protein sequences, listed by entry. Tags and fused reporters are not part of them.
UniProt Q0JBA9, entry or part of it: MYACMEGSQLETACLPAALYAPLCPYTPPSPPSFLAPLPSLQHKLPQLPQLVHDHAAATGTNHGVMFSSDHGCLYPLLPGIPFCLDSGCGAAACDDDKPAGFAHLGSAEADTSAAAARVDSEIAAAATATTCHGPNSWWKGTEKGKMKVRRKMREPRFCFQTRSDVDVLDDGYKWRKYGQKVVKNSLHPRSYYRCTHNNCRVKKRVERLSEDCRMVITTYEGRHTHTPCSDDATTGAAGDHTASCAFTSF

The list shows a part of the results.

For the assay, the target named is OsWRKY34 (Oryza sativa, UniProt Q0JBA9 1-250). Description: protein-binding microarray (RPBM); PBS, 2% BSA, 51.3 ng/ul salmon testes DNA, 50 uM zinc acetate, 200 nM TF, 25 C, 1 h; high values mean tight binding. Conditions: protein: recombinant; tags: N-terminal polyhistidine and DsRed monomer fusion (pET32a); label: CyDye5-dUTP incorporated in the synthesized complementary strand; 3' TTTTT single-stranded linker to array surface; dsDNA, one strand shown. In outline: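 The binding signal is fluorescence intensity per feature, in arbitrary units, read on an Axon 4000B scanner. Polyhistidine- and DsRed-tagged transcription factors (N-terminal fusions) from E. coli BL21-CodonPlus were purified on Ni–NTA and applied at 200 nM for 1 h at 25 °C to a double-stranded, BSA-blocked custom Agilent array in buffer with 50 µM zinc acetate.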
On to “ACATCAAACGTCGATAGTATTCTGTTGTATTCTTGGTGGGCGGAGTCACCTAGTGCAG”, for which the binding signal is 8310 fluorescence intensity (a.u.).

Regarding “CGGCAGTGTTCTTTTTTTTTTACACGCGTTTTTTTTTACACGGAGTCACCTAGTGCAG”, the binding signal is 10800 fluorescence intensity (a.u.).

“AGTGTTAGTTTGTGATGTAATCTAGTCTAGGCCTGTGTATCGGAGTCACCTAGTGCAG”: the binding signal is 11500 fluorescence intensity (a.u.).

On to “GCAACGGTTTGGCCCATCACTGATTTTTCTATGGGCCACACGGAGTCACCTAGTGCAG”, for which the binding signal is 9140 fluorescence intensity (a.u.).

Regarding “CCTCTCCCCGCCGCCTCCACCTCCTCCGCCGCCACTGTGTCGGAGTCACCTAGTGCAG”, the binding signal is 8320 fluorescence intensity (a.u.).

With “AACCAGGCCATACTTGCATCCTTTGTCTGCTGGGCTGCCTCGGAGTCACCTAGTGCAG”, the binding signal was 8410 fluorescence intensity (a.u.).

“ATGCCTTCTTACTCCCTTTTTGCTTTCAGCATTGGATACCCGGAGTCACCTAGTGCAG”: the binding signal is 8550 fluorescence intensity (a.u.).

With “GCTACTGGTGCCGGCCGCCGTCCTCCTGCTTCCGCCGCCGCGGAGTCACCTAGTGCAG”, the binding signal was 9560 fluorescence intensity (a.u.).

Regarding “CCGTGCTCTGCTGCCGCCCTGGGACTCCTCTCACCTACTACGGAGTCACCTAGTGCAG”, the binding signal is 8050 fluorescence intensity (a.u.).

On to “GGCATCAAGTTTTCTCTTATTTAAGTTGGCAATCGCTTATCGGAGTCACCTAGTGCAG”, for which the binding signal was 9560 fluorescence intensity (a.u.).

On to “GTGTGGATGTGTATAGATTTTGTTTTACACGCTCGGCGTACGGAGTCACCTAGTGCAG”, for which the binding signal was 9070 fluorescence intensity (a.u.).

Consider “AGCATATTCCAAGCCACGACTTACGCCTTGTGGCTTTCGCCGGAGTCACCTAGTGCAG”, for which the binding signal was 8810 fluorescence intensity (a.u.).

On to “CTATCACTTGGAAGTACTACTTATCAACATCAAACATTTCCGGAGTCACCTAGTGCAG”, for which the binding signal was 8300 fluorescence intensity (a.u.).

For “TGTGTGCGAAAGCTAGTTTTTTCAGTTGCATTTTTTTAACCGGAGTCACCTAGTGCAG”, the binding signal was 8840 fluorescence intensity (a.u.).

Take “GTTCTCTCCAACTTGACTCAACATTAGTACACAATAGTATCGGAGTCACCTAGTGCAG”: the binding signal was 8960 fluorescence intensity (a.u.).

For the sequence “TTTTTTTCCTCCCTATTCGCTGTGTCATGCCTTATATATTCGGAGTCACCTAGTGCAG”, the binding signal was 8240 fluorescence intensity (a.u.).

For “TCCCTAAATATTTGACGCCGTTGACTTTTTTAAACATGTTCGGAGTCACCTAGTGCAG”, the binding signal is 26400 fluorescence intensity (a.u.).

Regarding “ATTGCCCAACCTCTGCTTCTGTTGGCCCAAGAAGAATCCCCGGAGTCACCTAGTGCAG”, the binding signal was 8110 fluorescence intensity (a.u.).

Take “GGCCAATAAGTTCCAGTTCTCTTCTTAAGGCCCATTAGACCGGAGTCACCTAGTGCAG”: the binding signal is 61800 fluorescence intensity (a.u.).

With “CATCAGTCACACGACCTTCAAGGCCATAGCCTGCCTGTCTCGGAGTCACCTAGTGCAG”, the binding signal was 8040 fluorescence intensity (a.u.).

“TCAATTTCCAACAACGGCACTCCTCCGCCCTATTCGATCCCGGAGTCACCTAGTGCAG”: the binding signal was 10100 fluorescence intensity (a.u.).

In the case of “CCTTGGGTTCGACGCCCTTGACAACCTGGTATCACGTTCCCGGAGTCACCTAGTGCAG”, the binding signal is 8550 fluorescence intensity (a.u.).

Take “TCTCTTCATCGTCGTCAGCGGCCTTGTATATTAGTGGTCACGGAGTCACCTAGTGCAG”: the binding signal is 9350 fluorescence intensity (a.u.).

“TCAACTGCACCAGCATCCCAACTGTGGTTTGTAAGATTCTCGGAGTCACCTAGTGCAG”: the binding signal is 8910 fluorescence intensity (a.u.).

Regarding “GTTGCAGGGTGGGGATTGTTAAATTTATTGTTTGGCTGGACGGAGTCACCTAGTGCAG”, the binding signal was 16600 fluorescence intensity (a.u.).

As for “GCTGCTGATGCGAGGTCAAAATTCTCGTCTACCTGATTCTCGGAGTCACCTAGTGCAG”, the binding signal was 8900 fluorescence intensity (a.u.).

In the case of “ATTTACGTTTGGAACTGTATATTACTTGTCGTTTTGTGTACGGAGTCACCTAGTGCAG”, the binding signal was 8200 fluorescence intensity (a.u.).

Consider “TAATTCTCGCGTTTCATTATTTTCTTTCTTTTTTAGTCTACGGAGTCACCTAGTGCAG”, for which the binding signal was 12000 fluorescence intensity (a.u.).

As for “CTAGACTTTGCTTTCGCTGCGCTCTCTCTCTCTCTCACCGCGGAGTCACCTAGTGCAG”, the binding signal was 8520 fluorescence intensity (a.u.).

Regarding “GGCCCATCACACGCGGCGCCTCTCTCTCCCTCTCCCCAAACGGAGTCACCTAGTGCAG”, the binding signal is 8410 fluorescence intensity (a.u.).

On to “GGTTGATTTATGGGCCTTTTGTTTCTTCTCGGCGGCGCGTCGGAGTCACCTAGTGCAG”, for which the binding signal was 10100 fluorescence intensity (a.u.).

For “AATAGTGGATTAAGGGTGTGTTTAGTTGGGGAAAAGGAAACGGAGTCACCTAGTGCAG”, the binding signal was 9360 fluorescence intensity (a.u.).

On to “CAATATGGCCATTGCCCGTTCTTTTTATTGTTCGGCTTCACGGAGTCACCTAGTGCAG”, for which the binding signal was 11300 fluorescence intensity (a.u.).

Regarding “ACATTATCATGTCACGTCGTCGCGTAATCATGGGTACCCACGGAGTCACCTAGTGCAG”, the binding signal was 10400 fluorescence intensity (a.u.).

For “GTCCCACTATATATACTCGAAGCCGTCACCTACCTTCCCACGGAGTCACCTAGTGCAG”, the binding signal is 8190 fluorescence intensity (a.u.).

Regarding “GGTTTATTTTGACTACAATCTGAGCAGACCCTTATTAAGTCGGAGTCACCTAGTGCAG”, the binding signal is 8170 fluorescence intensity (a.u.).

Turning to “GGAAAAAGTTACAATCTTGTAACCACATTGCTTGGCCATTCGGAGTCACCTAGTGCAG”, the binding signal was 8070 fluorescence intensity (a.u.).

As to “TTCCTTGCTCTCTGGGCTATTTTCAGCCCATTTTATTCTTCGGAGTCACCTAGTGCAG”, the binding signal is 10500 fluorescence intensity (a.u.).

In the case of “ACTCGGACTATTTTGGCTTCTATCATCAAATGCTATTGGCCGGAGTCACCTAGTGCAG”, the binding signal is 8090 fluorescence intensity (a.u.).

As to “AGTTTTACACTTGTATTCCTGACCTGTTTCTTGTCTAGCACGGAGTCACCTAGTGCAG”, the binding signal is 9110 fluorescence intensity (a.u.).

Take “CCGCGCGATCTCGCCGTCTCGTCTCTCGCCATCGCAGATACGGAGTCACCTAGTGCAG”: the binding signal is 8380 fluorescence intensity (a.u.).

As for “TTCACGTCCACTTCACCGGAGTTGCCATTTCCAATCCCAACGGAGTCACCTAGTGCAG”, the binding signal is 10400 fluorescence intensity (a.u.).
